Laboratory results taken from PubChem BioAssay AID1347076 (National Center for Advancing Translational Sciences (NCATS), 2019).
Among all 400,000 compounds or so, about 13,000 (3.2%) were called active. Inconclusive results, whose numbers are uncertain, are shown with a selection of clear calls. Calls follow the shape of the dose curve; as a rule, active = well fitted cell-killing curve with a large enough effect; inconclusive = small, poorly fitted or top-dose-only effect, or effect the other way; inactive = flat fitted curve, though single readings scatter. Where the call is inconclusive, the potency comes from a doubtful curve fit.

Experiment: qHTS assay for MDR1-selective chemotherapeutics: Primary screen using the drug-selected MDR subline cells KB-V1; also: nearly all actives have a fitted effect of over 60% in size
Conditions: KB-V1 MDR cells viability, CellTiter-Glo, 72 h; activity change, negative = cytotoxicity: at 46.1 µM (top of the series)
Outline: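 Readout: CellTiter-Glo luminescence, 10 min after addition. Cells: KB-V1 MDR subline, 72 h at 37 degrees C with compound. Analysis: corrected, normalized data fitted to concentration-effect curves.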
% is scaled to controls: 0 for no effect and ±100 for the full control effect; potency is read from the fitted curve at half-maximal effect.

SMILES | Potency | activity change, negative = cytotoxicity
CCc1nc(C)c(C#N)c2cc(OC)c(OC)cc12 | inconclusive: 1.46 µM [cytotoxic, full curve, poor fit] | 
CSc1ncccc1C(=O)N1CCN(S(=O)(=O)c2ccc(C)cc2)CC1 | inconclusive: 8.2 µM [cytotoxic, partial curve, poor fit] | 
Cc1ccc(Nc2nc(N)nc(CN3CCN(Cc4ccc5c(c4)OCO5)CC3)n2)cc1C | inconclusive: 13 µM [cytotoxic, partial curve] | 
O=C(CSc1nnc(-c2c[nH]c3ccccc23)n1CC1CCCO1)Nc1ccc2c(c1)OCCO2 (centres undefined) | inactive | 
CCOC(=O)c1c2c(n(C)c1C)C(=O)C(=O)c1ccc(Br)cc1-2 | active: 3.26 µM | 
Cc1ccc(C(C)C)c(OCCn2c(=O)oc3ccccc32)c1 | inconclusive: 29.1 µM [cytotoxic, single point] | 
Cc1ccc(NS(=O)(=O)c2cccc(C(=O)NC3CCN(Cc4ccccc4)CC3)c2)cc1 |  | inconclusive: -101%
Cc1cc(NC(=O)CCN2CCCCC2)ccc1Br | inactive | 
O=C(NCCCN1CCOCC1)c1cc(-c2cccc(O)c2)on1 | inconclusive: 29.1 µM [rising, single point] | 
Cc1ccc2nc(Cl)c(/C=N/NC(=O)[C@H]3C[C@@H]3c3ccccc3)cc2c1 | inactive | 
C=CCc1cc(/C=C2/NC(=S)NC2=O)cc(OC)c1O | inconclusive: 16.4 µM [cytotoxic, partial curve, poor fit] | 
CC(=O)Oc1ccc2oc(/C=C/N(C)C)c([N+](=O)[O-])c2c1 | inactive | 
Cn1c(C(=O)N2CCC(C(=O)NCCc3ccccc3)CC2)cc2sccc21 | inconclusive: 16.4 µM [cytotoxic, partial curve, poor fit] | 
Clc1nc(-c2ccccc2)cc(-c2ccc(Br)cc2)n1 | inconclusive: 20.6 µM [cytotoxic, single point] | 
CCN(CC)CCNC(=O)c1cn(CC)c2ccc(S(=O)(=O)N(C)C3CCCCC3)cc2c1=O | inconclusive: 0.0411 µM [rising, full curve, poor fit] | 
O=C(c1ccc(S(=O)(=O)Nc2cccc(C(F)(F)F)c2)cc1)N1CCN(c2ccccc2O)CC1 | active: 20.6 µM | 
CN1C(=S)SC(C)(C)C1N(O)C(=O)Nc1ccc(Cl)cc1 (centres undefined) | inactive | 
Cc1ccc(-c2cc(C(=O)NC3CCCC3)no2)cc1 | inconclusive: 16.4 µM [cytotoxic, partial curve] | 
COc1ccc2c(c1)CCC1(C)CC(=O)C(Br)=C21 (centres undefined) | active: 6.51 µM | 
O=C(c1cc(C2CC2)nn1-c1ccccc1)N1CCN(S(=O)(=O)c2cccc(F)c2)CC1 | inconclusive: 29.1 µM [cytotoxic, single point] | 
CCCc1cc(N2CCCC(C(=O)NCC)C2)n2ncnc2n1 (centres undefined) |  | inconclusive: -44.4%
COc1cc(/C=N/OCC(=O)NC2CCCCC2)ccc1OCc1ccccc1 | inconclusive: 18.4 µM [cytotoxic, partial curve] | 
Cc1cc2nc(-c3ccccc3)cc(=O)n2[nH]1 | inactive | 

2 compounds picked at random from the list so far, as already listed:
SMILES | Potency | activity change, negative = cytotoxicity
CCN(CC)CCNC(=O)c1cn(CC)c2ccc(S(=O)(=O)N(C)C3CCCCC3)cc2c1=O | inconclusive: 0.0411 µM [rising, full curve, poor fit] | 
Cc1cc2nc(-c3ccccc3)cc(=O)n2[nH]1 | inactive | 

Next structures follow:

SMILES | Potency | activity change, negative = cytotoxicity
O=C(CCCN1C(=O)c2cccc3cccc(c23)C1=O)N1CCN(c2ccccc2O)CC1 | active: 6.51 µM | 
COc1cccc(N2CCN(c3ccc4nnc(CCC(=O)Nc5ccc(OC)c(OC)c5)n4n3)CC2)c1 | inconclusive: 4.61 µM [rising, partial curve, poor fit] | 
Cc1ccc(-n2nnnc2SCC(=O)NC2CCCc3ccccc32)c(C)c1 (centres undefined) | inconclusive: 10.3 µM [cytotoxic, partial curve] | 
O=C(CNC(=O)c1ccc2c(c1)OCO2)Nc1cccc(Br)c1 | inconclusive: 0.731 µM [rising, full curve] | 
COc1ccccc1C(=O)NCCC(=O)NNC(=O)c1ccccc1O | inconclusive: 5.8 µM [rising, partial curve, poor fit] | 
CCOC(=O)C1=C(C)N(CC)C(=S)NC1c1ccc(Cl)cc1 (centres undefined) | inconclusive: 29.1 µM [cytotoxic, single point] | 
Cc1ccc(O)c(C(=O)C=Cc2ccccc2)c1 | inconclusive: 16.4 µM [cytotoxic, single point] | 
OCc1ccccc1OCCCOc1cccc2cccnc12 | inconclusive: 13 µM [cytotoxic, partial curve] | 
CCCNC(=O)CN(C)S(=O)(=O)c1c(C)cc(C)cc1C | inconclusive: 16.4 µM [cytotoxic, single point] | 
COc1ccc(S(=O)(=O)N2CCCCC2)cc1NC(=O)CCNC(=O)c1ccc(Br)cc1 | inconclusive: 11.6 µM [cytotoxic, partial curve] | 
COc1cc(/C=N/NC(=O)CSc2n[nH]c(=O)[nH]c2=O)cc(OC)c1O | inactive | 
COc1cc(C(=O)NCCCCCC(=O)O)cc(OC)c1OC | inactive | 
Cc1onc(-c2c(F)cccc2Cl)c1C(=O)Nc1cccc(S(=O)(=O)NCc2ccco2)c1 | inconclusive: 29.1 µM [cytotoxic, single point] | 
CC(C)N1CCC(C)(C(=O)Nc2ccccc2Oc2ccccc2)C1 (centres undefined) | inconclusive: 16.4 µM [cytotoxic, single point] | 
CCc1ccc(NC(=O)N(CCN2CCOCC2)Cc2ccc3c(c2)CCCN3CC)cc1 | active: 20.6 µM | 
O=C(CCNS(=O)(=O)c1ccc(Br)s1)NCc1ccc(F)cc1 | inactive | 
COc1cc(C(=O)Nc2ccc3c(c2)N(C(=O)CCN(C)C)c2ccccc2CC3)cc(OC)c1OC | inconclusive: 18.4 µM [rising, partial curve] | 
Oc1cc(-c2ccncc2)cc2cccnc12 | inconclusive: 29.1 µM [cytotoxic, single point] | 
Cc1ccc(/C=C/C(=O)Nc2ccc(Oc3ccccc3)cc2)o1 | inconclusive: 20.6 µM [cytotoxic, single point] | 
Cc1ccc(NC(=O)c2cc(Cl)ccc2[N+](=O)[O-])cc1C | inactive | 
O=C(CN1CCc2ccccc2C1)Nc1ccccc1F | inactive | 
Cc1nc2ccccn2c1-c1csc(NCc2ccco2)n1 | inconclusive: 23.1 µM [cytotoxic, single point] | 
COC(=O)CSc1nnc(-c2ccc(OC)c(OC)c2)o1 | inconclusive: 29.1 µM [rising, single point] | 

SMILES | Potency | activity change, negative = cytotoxicity
CC1=CC(C)(C)Nc2ccc(OC(=O)c3cccnc3)cc21 | inconclusive: 29.1 µM [cytotoxic, single point] | 
O=C(O)CCC(=O)OCCN(Cc1ccc(Oc2ccc([N+](=O)[O-])cc2)cc1)C(=O)C(Cl)Cl | active: 23.1 µM | 
CCn1ncc(Br)c1C(=O)Nc1ccc2c(c1)OCCO2 | active: 20.6 µM | 
CCn1cc(-c2cc(C(=O)O)c3ccccc3n2)cn1 | inconclusive: 29.1 µM [cytotoxic, single point] | 
COC(=O)CNC(=O)c1ccccc1 | inconclusive: 2.59 µM [cytotoxic, partial curve, poor fit] | 
C/C(=N\NC(=O)Nc1ccccc1)c1ccccc1 | inconclusive: 23.1 µM [rising, single point] | 
CC(=O)N(c1cccc(C)c1)S(=O)(=O)c1ccc(Cl)cc1 | inconclusive: 29.1 µM [rising, single point] | 
CC1(c2nnnn2Cc2ccccc2)CCC(=O)N1Cc1cccc(C(F)(F)F)c1 (centres undefined) | inconclusive: 11.6 µM [cytotoxic, partial curve] | 
O=[N+]([O-])c1ccc(Cl)c(S(=O)(=O)Nc2cccc(S(=O)(=O)NC3=NCCC3)c2)c1 | inconclusive: 29.1 µM [rising, single point] | 
CCOC(=O)c1c(NC(=O)CNCC(O)CO)sc(C)c1C (centres undefined) | inactive | 
O=C1Nc2ccccc2OC1CC(=O)N1CCN(c2cccc(C(F)(F)F)c2)CC1 (centres undefined) | inconclusive: 29.1 µM [cytotoxic, single point] | 
O=C1NC(=Nc2ccccc2)S/C1=C\C=C\c1ccco1 | inconclusive: 18.4 µM [cytotoxic, single point] | 
CCCCNC(=O)c1nc(-c2cccnc2OC)oc1-c1ccc(Cl)cc1 | inconclusive: 9.2 µM [cytotoxic, partial curve] | 
COc1ccc(CC(=O)Nc2cc(S(=O)(=O)N3CCCCC3)ccc2C)cc1OC | inconclusive: 1.16 µM [cytotoxic, full curve, poor fit] | 
C=CC[C@@H](CC(=O)N(CCO)Cc1ccccc1)C(=O)N[C@H](COC(=O)[C@@H](CC=C)CC(=O)OC(C)(C)C)c1ccccc1 | inconclusive: 29.1 µM [cytotoxic, single point] | 
CCN(CC)S(=O)(=O)c1cccc(NC(=O)C2SC(=Nc3ccc(C)cc3C)C(C(=O)NCC3CCCO3)=C2N)c1 (centres undefined) | active: 20.6 µM | 
COc1ccc(CN(Cc2ccc(OC)cc2)C(=O)c2cccs2)cc1 | inconclusive: 11.6 µM [cytotoxic, partial curve] | 
Cc1cc(C(=O)Cn2cnc3cc([N+](=O)[O-])ccc3c2=O)c(C)n1CC1CCCO1 (centres undefined) | inconclusive: 16.4 µM [cytotoxic, single point] | 
CCOC(=O)c1nn(-c2cccc(OC)c2)c(-c2ccccc2)c1C(=O)c1ccccc1 | inconclusive: 23.1 µM [cytotoxic, partial curve] | 
Cc1c(C#N)c2ccccc2n1CCOc1ccccc1F | inactive | 
CN(CCOc1ccccc1)CC(=O)Nc1cccc(Br)c1 | inconclusive: 18.4 µM [cytotoxic, single point] | 
Cc1nn(CC(=O)N2CCc3ccccc3C2)c(C)c1[N+](=O)[O-] | inconclusive: 7.31 µM [cytotoxic, partial curve] | 
COc1ccccc1CCn1cnc(-c2ccc(Br)cc2)c1C(C)C | inconclusive: 20.6 µM [cytotoxic, single point] | 

Sorted by formula weight (falling): three of the compounds above
SMILES | Potency | activity change, negative = cytotoxicity
COc1ccc(CC(=O)Nc2cc(S(=O)(=O)N3CCCCC3)ccc2C)cc1OC | inconclusive: 1.16 µM [cytotoxic, full curve, poor fit] | 
Cc1c(C#N)c2ccccc2n1CCOc1ccccc1F | inactive | 
C/C(=N\NC(=O)Nc1ccccc1)c1ccccc1 | inconclusive: 23.1 µM [rising, single point] | 
